For at least one compound, name, drawing or mass did not settle the structure.
What was measured:
Type in all cases: physicochemical
[1] = In vitro dissolution in snapwells, mean dissolution time (MDT); conditions: DSP aqueous solution; micronized DEX suspension in water (no poloxamer)
[2] = Stability to autoclaving (impurity profile, assay, pH, osmolality, appearance); conditions: autoclaving at 250° F. for 30 minutes in P407
[3] = Dry heat sterilization of micronized dexamethasone

With `C[C@@H]1C[C@H]2[C@@H]3CCC4=CC(=O)C=C[C@]4(C)[C@@]3(F)[C@@H](O)C[C@]2(C)[C@@]1(O)C(=O)CO` [DEX, dexamethasone] the MDT [1] was 44 h, the “change observed after autoclaving” value [2] was “Minimal degradation or change” and the “purity by HPLC after dry-heat sterilization” value ([3]; dry-heat sterilized, 7-11 hours) was 99%. For the same compound, the “effect of dry-heat sterilization on particle size distribution” value ([3]; temperature of up to 138° C.) was “did not affect particle size distribution”.
